Laboratory results taken from patent US20190338026A1 (University of Texas, published 2019).
No constants are given. Whether binding was seen depends on the method and setting. Some results given as binding are weak or reduced against the parent protein; the word gives no strength. Sequences can lack the tags named with a protein.

T1: human LAIR1 extracellular domain (ECD) protein with 6 HIS tag at the C-terminus (human) (UniProt Q6GTX8)
T1 sequence: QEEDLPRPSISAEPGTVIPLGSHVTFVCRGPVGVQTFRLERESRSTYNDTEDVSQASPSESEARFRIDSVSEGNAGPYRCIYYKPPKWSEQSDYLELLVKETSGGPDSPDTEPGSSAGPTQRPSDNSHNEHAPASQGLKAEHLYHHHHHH


How the values were obtained:
[1] = target: T1, human LAIR1 extracellular domain (ECD) protein with 6 HIS tag at the C-terminus (human); assay: ELISA
[2] = target: T1, human LAIR1 extracellular domain (ECD) protein with 6 HIS tag at the C-terminus (human); assay: ELISA, LAIR1 ECD coated

| binding [1] | binding [2] | Binder |
| --- | --- | --- |
| binds | binds | LA-171 (antibody, V domains shown, Rabbit monoclonal IgG) VH: EQSVEESGGRLVTPGGSLTLTCTVSGFSLSSYNMGWVRQAPGKGLEYIGWISLGGNTYYASWVNGRFTISKTSTTVELKISSPTTEDTATYFCARGAGSLYYGDYYFTLWGPGTLVTISS VL: ELVLTQTPSSVSAAVGGTVTIKCQASQSIYSNLAWYQQKPGQPPKLLIYKASNLASGVPSRFKGSGSGTEYTLTISDLECADAATYYCQNYYGINDYGAAFGGGTEVVVK |
| binds | binds | LA-56 (antibody, V domains shown, Rabbit monoclonal IgG; also called mAb LA-56) VH: SSSVEESGGRLVTPGTPLTLTCTVSGFSLSAYWVGWVRQAPGKGLEYIGFVDVDIYYASWARGRFTISKTSSTTVDLILTSPTMEDTATYFCVRMSYNAMDLWGPGTLVTISS VL: ELDLTQTASSVSAAVGDTVTINCQSSESVYKDNFLSWYQQKPGQPPKLLIYRASTLASGVPSRFKGSGSGSQFTLTISDVVCDDAATYYCSGYRNSHDGLPFGGGTEVEIK |
| binds | binds | LA-6 (antibody, V domains shown, Rabbit monoclonal IgG; also called mAb LA-6) VH: EQSVEESGGDLVKPEGSLTLTCTASGFSFSSGYYMCWVRQAPGKGLEWIGCIHSSSGNIYYASWAKGRFTISKTSSTTVDLQLTSLTAADTATYFCARDSEVYGWNPNDLWGPGTLVTVSS VL: ELDMTQTPASVSEPVGGTVTIKCQASQSISSYLAWYQQKPGQRPKLLIYGASNLASGVSSRFKGSRSGTQFTLTITDLECDDAATYYCQCSYYGNSYVGGAFGGGTEVVVK |
| binds | binds | LA-258-1 (antibody, V domains shown, Rabbit monoclonal IgG) VH: QSVKESGGDLVKPEGSLTLTCKASGFSFSNSYYMCWVRQAPGKGLEWIACIYTGSTSGTYYASWVNGRFTISKTPSTTVTLQMTSLTVADTATYFCSRKLTNFNGAYLDLWGPGTLVTISS VL: ELVLTQTPASVEAAVGGTVTINCQASQSISNLLAWYQQKPGQRPKLLIYRASTLASGVSSRFKGSGSGTEYTLTISGVQCDDAATYYCQQGYTSNNVDNAFGGGTEVEIK |
| binds | binds | LA-192 (antibody, V domains shown, Rabbit monoclonal IgG; Called an agonist antibody) VH: EQSLEESGGRLVTPGTPLTLTCTASGFSLSSYYMTWVRQAPGKGLEWIGYMHTGGGVVYASWATGRFTISRTSTTVDLKITSPTTEDTATYFCARSHAGYSTINRLDLWGVGTLVTISS VL: ELDLTQTPSSVSAAVGGTVTISCQSSPSVYTNNLSWFQQKPGQPPKLLIYDASKLESGVPSRFRGSGSGTQFTLTISDVQCDDAATYYCAGAYLSDSDTTFGGGTELEIK |
| binds | binds | LA-259-1 (antibody, V domains shown, Rabbit monoclonal IgG) VH: QSVKESGGRLVTPGTPLTLTCTASGFSLYKYNIQWVRQAPGKGLEYIGASTYAGYTYYASWAKGRVTISRTSTTVDLKMTSPTTEDTATYFCARHIDGDYSGYALWGPGTLVTISS VL: ELVLTQTPASVSAAVGGTVTIKCQASQSIGTWFAWYQQKPGQSPKLLIYGPSKLASGVPPRFKGSGSGTEFTLTISDLECADAATYYCQSTYFGVDYLGGTFGGGTEVVVK |
| binds | binds | LA-142-2 (antibody, V domains shown, Rabbit monoclonal IgG) VH: AAVKESGGRLVTPGTPLTLTCTASGFSLYKYNIQWVRQAPGKGLEYIGASTYAGYTYYASWAKGRVTISRTSTTVDLKMTSPTTEDTATYFCARHIDGDYSGYALWGPGTLVTVSS VL: ELVLTQTPASVSAAVGGTVTIKCQASQSIGTWFAWYQQKPGQSPKLLIYGASNLASGVSSRFKGIRSGTEYTLTISDLECADAATYYCQCSDVGNTYGAAFGGGTEVEIN |
| binds | binds | LA-142-1 (antibody, V domains shown, Rabbit monoclonal IgG) VH: AAVKESGGRLVTPGTPLTLTCTASGFSLYKYNIQWVRQAPGKGLEYIGASTYAGYTYYASWAKGRVTISRTSTTVDLKMTSPTTEDTATYFCARHIDGDYSGYALWGPGTLVTVSS VL: ELVLTQTPASVSAAVGGTVTIKCQASQSIGTWFAWYQQKPGQSPKLLIYGPSKLASGVPPRFKGSGSGTEFTLTISDLECADAATYYCQSTYFGVDYLGGTFGGGTEVEIK |
| binds | binds | LA-89 (antibody, V domains shown, Rabbit monoclonal IgG; also called mAb LA-89) VH: QSVKESGGRLVTPGTPLTLTCTVSGFSLSSNAISWVRQAPGKGLEWIGYIYGDGRTFYASWAKGRFTISKTSTTVDLKMTSLTSEDTATYFCIKSLHLWGPGTLVTISS VL: ELDMTQTASPVSAAVGGTVTINCQSSQSVYNKNQLFWYQQKPGQPPKLLIYDASTLASGVPSRYKGSGSGTQFTLTISGVQCDDAATYYCLGEYTGNIYTFGEGTEVVVK |
| binds | binds | LA-245 (antibody, V domains shown, Rabbit monoclonal IgG) VH: QSLQESRGRLVTPGTPLTLTCTASGFSLSSYHMGWVRQAPGKGLEWIGYIHTNRNTWYANWAKGRFTISKTSSTTVNLRMTSPTTEDTATYFCARGSYGDYNFLFDVWGPGTLVTVSS VL: ELVMTQTPASVSEPVGGTVTINCQASEDISIYLAWYQQKPGQPPKLLIYDASTLESGVPSRFSGSGSRTQFTLTISDLECADAATYYCQQYSTTDTNNLFGGGTEVEIK |
| binds | binds | LA-94 (antibody, V domains shown, Rabbit monoclonal IgG; Called an agonist antibody; also called mAb LA-94; agonist Ab LA-94) VH: EQSLEESEGRLVTPGTPLTLTCTASGFSLSGYHMSWVRQAPGKGLEYIGYISERGTSYYANWAKGRFTVSKSSSSTVVLSIISPTAEDTATYFCARYGGGDSAFILWGPGTLVTISS VL: ELVMTQTPASVSGPVGGTVTIKCQASHNIDNSLAWYQQKPGQPPKLLIYKASTLASGVSSRFKGSGSGTEYTLTISDLECADAATYFCQGTIGLNSGCAFGGGTEVEIK |
| binds | binds | LA-35 (antibody, V domains shown, Rabbit monoclonal IgG; also called mAb LA-35) VH: EQSVKESGGRLVTPGTPLTLTCTVSGIDLSYYSMGWFRQAPGKGLEWIGVISSSDSTYYANWAKGRFTISKTSTTVDLKIAGPTTEDTATYFCARVLANSYNAFNLWGPGSLVTISS VL: ELDLTQTPASVSEPVGGTVTIKCQASQSVGSRLAWYQQKPGQPPKLLIYKASTLASGVPSRFKGSGSGTQFTLTMSDLECADAATYYCQCTNISSAYLGAFGGGTEVEIK |
| binds | binds | LA-29 (antibody, V domains shown, Rabbit monoclonal IgG; also called mAb LA-29) VH: SSSVEESGGGLVQPEGSLTLTCTASGFSFSSRYYMCWVRQAPGKGLEWIACIYNGDGSRYYASWAKGRFTISKTSSTTVTLQMTSLTAADTATYFCVRDRHTAFVDYGDDNLWGPGTLVTVSS VL: ELDLTQTPASVSEPVGGTVTIKCQASQSIYSNLAWYQQKPGQPPKLLIYRASTLASGVPSRFKGSGAGTEFTLTISDLECADAATYYCQCTYDGISYVPSSFGGGTEVVVK |
| binds | binds | LA-61 (antibody, V domains shown, Rabbit monoclonal IgG; also called mAb LA-61) VH: EQLMEESGGRLVTPGTPLTLTCTASGFDVNAYHMGWVRQAPGKGLEWIGYIYSGGTIFYANWAKGRFTLSRTSTTVDLKITSPTTEDTATYFCARGGYDNYNILYDLWGPGTLVTISS VL: ELDMTQTPASVSEPVGGTVTIKCQASQSISVYLAWYQQKPGQPPKLLIYDASTLTSGVPSRFKGSGSGTEFTLTISDLECADAAAYYCQSYDGTPTAAFGGGTEVVVK |
| binds | binds | LA-60 (antibody, V domains shown, Rabbit monoclonal IgG; also called mAb LA-60) VH: EQSLESGGGLVQPEGSLTLTCTASGFSFSNSYYMCWVRQAPGKGLEWIGCIYTGSSSGTYYASWAEGRFTISKTPSTTVTLQMTSLTAADTATYFCSRKLTNFNGAYLDLWGPGTLVTVSS VL: ELVLTQTPASVEAAVGGTVTIKCQASQSIYSYLAWYQQKPGQPPKVLIYKASTLASGVPSRFKGSGSGTEFTLTISDLECADAATYYCQNNNGGSDNTFGGGTEVVVK |
| binds | binds | LA-145 (antibody, V domains shown, Rabbit monoclonal IgG) VH: SSSVEESGGRLVTPGTPLTLTCTVSGFSLSSYVMGWVRQAPGKGLEWIGTISIRSNTYYASWAKGRFTISKTSTTVDLKITSPITEDTATYFCARGAGNVYYSDYYFSLWGPGTLVTISS VL: ELVMTQPPASVSAAVGGTVTINCQASQNIYSNLAWYQQRPGQPPKLLIYKASTLASGVPSRFKGSGSGTDYTLTITDLECADAATYYCQTYYNMMDDGAAFGGGTEVEIK |
| binds | binds | LA-37 (antibody, V domains shown, Rabbit monoclonal IgG; also called mAb LA-37) VH: EQSLEESGGDLVKPGASLTLTCKASGFSFSSSEFMCWVRQAPGKGLEWIACIYGGLSDDTYFASWAKGRFTISKTSSITVTLQMTSLTAADTATYFCARSCDVNYYGFDPWGPGTLVTISS VL: ELVLTQTPAPVSAAVGDTVTIKCQASQNKGTNLAWYQQKPGQPPKLLIYLSSTLASGVPPRFKGSRSGTEYTLTISDLECADAATYFCQSTYYGSNGLTFGGGTEVEIK |
| binds | binds | LA-30 (antibody, V domains shown, Rabbit monoclonal IgG; also called mAb LA-30) VH: EQSVESGGGLVQPEGSLTLTCKASGFDFSRNAICWVRQAPGKGPEWIACYSFSSSATYYASWAKSRFTISKTSSTTVTLQMTSLTAADTATYFCARVDIYGGSRYWGMWGPGTLVTISS VL: ELVMTQTPASVEAAVGGTVTIKCQASQNIGGDLAWYQQKPGQPPKLLIYRASTLESGVPSRFSGSGSGTEFTLTISDLECADAATYYCQDTDIGSGAFGGGTELEIK |
| binds | binds | LA-111 (antibody, V domains shown, Rabbit monoclonal IgG) VH: EQSVEESGGGLVAPGGSLTLTCTVSGFSLSNYHMGWVRQAPGKGLEWIGYIYTHGTTFYASWAKGRFTISKTSTTVDLKMTRLTTGDTATYFCARGGYADYNILYNLWGPGTLVTISS VL: ELVLTQTPASVEAAVGGTVTINCQASQSISSYLAWYQQKPGQPPKLLIYDASDLASGVPSRFKGSRSGTEFTFTISDLECADAATYYCQTYDSSTTAAFGGGTEVEIK |
| binds | binds | LA-199 (antibody, V domains shown, Rabbit monoclonal IgG) VH: EQSVEESGGRLVTPGTPLTLTCTASGFSLSSYAMIWVRQAPGEGLEWIGDIYAGGGATYYASWAKGRFTISKTSTTVDLKITSPTTEDTATYFCARAYGSGYDLWGPGTLVTVSS VL: ELDLTQTPASVEVAVGGTVTIKCQASQSISSYLSWYQQKPGQPPKLLIYYASTMASGVPSRFSGSGSGTQFTLTISDLECADAATYYCQQGDSRSNVDNIFGGGTEVVVK |
